According to patent publication US11433099B2, “Immunotherapy with B*08 restricted peptides and combination of peptides against cancers and related methods” (Immatics Biotechnologies GmbH, priority 2018, dated 2022):

What was measured:
[1] = test system: HLA peptide pools from tumor and normal tissue samples; experiment: Identification and relative LC-MS quantitation of HLA-presented tumor associated peptides (presentation profiles); design: species or system human
[2] = test system: source genes (mRNA) in tumor and normal tissue samples; experiment: Expression profiling (RNASeq) of genes encoding the peptides; design: species or system human
[3] = cancer entities on which the peptide was found presented (Table 8A), value = entity abbreviations
[4] = RNASeq, tumors vs panel of normal tissues, value = tumor entities in this class

Row | Substance | Peptide Presentation on cancer entities ([1]; Table 8, cancer entities on which the peptide was presented) | Gene Expression in tumor samples: very highly over-expressed (+++) ([2]; Table 9B, tumor entities versus panel of normal tissues) | Peptide Presentation on cancer entities [1, 3] | Gene Expression in tumor samples: Highly over-expressed (++) [2, 4] | Gene Expression in tumor samples: over-expressed (+) [2, 4] | Gene Expression in tumor samples: very highly over-expressed (+++) [2, 4]
1 | 290: peptide found in KLK3 (gene looked up) (EEFLTPKKL; listed as Homo sapiens) [compound 290] | PRCA | PRCA | – | – | – | –
2 | 150: peptide found in PGR (gene looked up) (MRSSYIREL; listed as Homo sapiens) [compound 150] | – | – | UEC | UEC | BRCA | –
3 | 66: peptide found in MET (gene looked up) (DLKKTRVL; listed as Homo sapiens) [compound 66] | – | – | HNSCC, NSCLCadeno, NSCLCsquam, PACA | – | CCC, GBC, RCC | –
4 | 90: peptide found in KLK4 (gene looked up) (TIGLGLHSL; listed as Homo sapiens) [compound 90] | – | – | UBC | – | – | PRCA
5 | 11: peptide found in CCL17 (gene looked up) (MAPLKMLAL; listed as Homo sapiens) [compound 11] | – | – | CCC, HNSCC, NHL, NSCLCadeno, NSCLCother, NSCLCsquam, OSCAR, PACA, SCLC, UEC | NHL | – | –
6 | 247: peptide found in DLL3 (gene looked up) (TPEPSVHAL; listed as Homo sapiens) [compound 247] | – | – | NSCLCother | GBM, MEL, SCLC | – | –
7 | 176: peptide found in ROS1 (gene looked up) (YVIQRQSVL; listed as Homo sapiens) [compound 176] | – | – | NSCLCother | – | NSCLCadeno, NSCLCother, NSCLCsquam | –
8 | 157: peptide found in MCOLN2 (gene looked up) (QPYRFPQA; listed as Homo sapiens) [compound 157] | – | – | HNSCC | CLL, NHL | – | –
9 | 54: peptide found in HAVCR1 (gene looked up) (DLSRRDVSL; listed as Homo sapiens) [compound 54] | – | – | CCC, PACA, RCC | – | RCC | –
10 | 167: peptide found in HAVCR1 (gene looked up) (DMKITVSL; listed as Homo sapiens) [compound 167] | – | – | CCC | – | RCC | –
11 | 115: peptide found in PTPRZ1 (gene looked up) (MRILKRFLAC; listed as Homo sapiens) [compound 115] | – | – | MEL | GBM | – | –
12 | 161: peptide found in FOLH1 (gene looked up) (DIVPPFSAF; listed as Homo sapiens) [compound 161] | – | – | CCC, MEL, OSCAR, UBC | PRCA | – | –
13 | 183: peptide found in MET (gene looked up) (YVSKPGAQL; listed as Homo sapiens) [compound 183] | – | – | GBC | – | CCC, GBC, NSCLCadeno | –
14 | 138: peptide found in GRIN2D (gene looked up) (TQHLTVATL; listed as Homo sapiens) [compound 138] | – | – | NSCLCsquam, OC | CRC, GC, UBC | GBC, GBM, HNSCC, MEL, NSCLCadeno, NSCLCsquam, OSCAR, PACA, SCLC, UEC | –
15 | 132: peptide found in GFAP (gene looked up) (IPIQAHQI; listed as Homo sapiens) [compound 132] | – | – | GBM | GBM | – | –
16 | 15: peptide found in MYCN (gene looked up) (LLKKIEHA; listed as Homo sapiens) [compound 15] | – | – | CCC, GBM | AML, UEC | GBM, MEL, OC, SCLC, UBC | –
17 | 21: peptide found in PTPRZ1 (gene looked up) (RILKRFLAC; listed as Homo sapiens) [compound 21] | – | – | GBM, HNSCC, MEL | GBM | – | –
18 | 178: peptide found in ADCY8 (gene looked up) (IPRLAVISI; listed as Homo sapiens) [compound 178] | – | – | GBM | – | GBM | –
19 | 108: peptide found in MMP13 (gene looked up) (RSYYHPTNL; listed as Homo sapiens) [compound 108] | – | – | HNSCC, NSCLCsquam | HNSCC, NSCLCsquam, OSCAR | NSCLCadeno, UBC | –
20 | 22: peptide found in LOXL4 (gene looked up) (EVRLKPIL; listed as Homo sapiens) [compound 22] | – | – | CCC, MEL | MEL | CCC | –

Row | Substance | Peptide Presentation on cancer entities ([1]; Table 8, cancer entities on which the peptide was presented) | Gene Expression in tumor samples: very highly over-expressed (+++) ([2]; Table 9B, tumor entities versus panel of normal tissues) | Peptide Presentation on cancer entities [1, 3] | Gene Expression in tumor samples: Highly over-expressed (++) [2, 4] | Gene Expression in tumor samples: over-expressed (+) [2, 4] | Gene Expression in tumor samples: very highly over-expressed (+++) [2, 4]
21 | 20: peptide found in PTPRZ1 (gene looked up) (ILKRFLAC; listed as Homo sapiens) [compound 20] | – | – | GBM | GBM | – | –
22 | 125: peptide found in PTPRZ1 (gene looked up) (FPLVTPLL; listed as Homo sapiens) [compound 125] | – | – | GBM | GBM | – | –
23 | 17: peptide found in OR51E1 (gene looked up) (LLILKTVL; listed as Homo sapiens) [compound 17] | – | – | BRCA | PRCA | RCC | –
24 | 180: peptide found in SLC7A11 (gene looked up) (LAVPIFVAL; listed as Homo sapiens) [compound 180] | – | – | – | – | GBM, HNSCC, NSCLCadeno, NSCLCsquam, OSCAR | –
25 | 218: peptide found in HPGDS (gene looked up) (DNHPRLVTL; listed as Homo sapiens) [compound 218] | – | – | MEL | – | AML | –
26 | 206: peptide found in ABCB5 (gene looked up) (MEFPNKFNTL; listed as Homo sapiens) [compound 206] | – | – | MEL | – | MEL | –
27 | 154: peptide found in APOB (gene looked up) (VLKTLQEL; listed as Homo sapiens) [compound 154] | – | – | CCC, HCC | HCC | – | –
28 | 197: peptide found in BRIP1 (gene looked up) (YKAYPSQL; listed as Homo sapiens) [compound 197] | – | – | NSCLCadeno | – | CRC, NHL, NSCLCother, NSCLCsquam, OSCAR, SCLC | –
29 | 152: peptide found in APOB (gene looked up) (FNKLVTEL; listed as Homo sapiens) [compound 152] | – | – | CCC, HCC | HCC | – | –
30 | 5: peptide found in OR51E2 (gene looked up) (STMPKILAL; listed as Homo sapiens) [compound 5] | – | – | PRCA | – | – | PRCA
31 | 146: peptide found in PTPRZ1 (gene looked up) (FQTAHFYL; listed as Homo sapiens) [compound 146] | – | – | MEL | GBM | – | –
32 | 231: peptide found in SLC12A2 (gene looked up) (GEKLLRPSL; listed as Homo sapiens) [compound 231] | – | – | HNSCC | – | CRC | –
33 | 246: peptide found in ADAMTS12 (gene looked up) (RLLQKSKEL; listed as Homo sapiens) [compound 246] | – | – | BRCA, CCC, HNSCC, NSCLCadeno, NSCLCsquam, SCLC, UBC | – | BRCA, CCC, CRC, GBC, GC, HNSCC, NSCLCadeno, NSCLCother, NSCLCsquam, OSCAR, PACA. UBC | –
34 | 93: peptide found in MMP12 (gene looked up) (LMKEKIQEM; listed as Homo sapiens) [compound 93] | – | – | NSCLCother | CCC, GBC, GC, MEL, NHL, NSCLCadeno, OC, OSCAR, PACA, UBC, UEC | HCC, RCC | CRC. HNSCC, NSCLCother, NSCLCsquam, SCLC
35 | 105: peptide found in CCL17 (gene looked up) (APLKMLALV; listed as Homo sapiens) [compound 105] | – | – | BRCA, CCC, CRC, GBM, HNSCC, MEL, NHL, NSCLCadeno, NSCLCsquam, OSCAR, RCC | NHL | – | –
36 | 145: peptide found in ABCC4 (gene looked up) (MIYRKALRL; listed as Homo sapiens) [compound 145] | – | – | NHL | PRCA | – | –
37 | 219: peptide found in ABCB5 (gene looked up) (VRNPKILIL; listed as Homo sapiens) [compound 219] | – | – | CCC, CLL, GBM, HCC, MEL, NHL, NSCLCadeno, NSCLCsquam, PACA, PRCA, RCC, UEC | – | MEL | –
38 | 109 (IPASHPVLTL; listed as Homo sapiens) [compound 109] | – | – | NSCLCother | – | – | –
39 | 141 (AQLKLVAL; listed as Homo sapiens) [compound 141] | – | – | NSCLCadeno | – | – | –
40 | 173 (YPLLKDPSL; listed as Homo sapiens) [compound 173] | – | – | CCC, PACA, SCLC | – | – | –

For part of these data: For expression read-outs the peptide stands for its source gene, whose mRNA was measured; the gene is not named for every peptide.
